Test system: BAF complex subunits and histone proteins
Assay: Mass spectrometry proteomics of purified HA-SS18 WT and HA-SS18-SSX1 complexes (Tables 5A-5E)
Set-up: species or system human
Details: for Total / Unique: HA-SS18SSX1_CHR_peptides; for Total: total peptides of the identified protein; for Unique: unique peptides of the identified protein; for Total (total peptides) / Unique (unique peptides) / Total (peptides) / Unique (peptides): HEK-293T
[1] = HA-SS18WT_CHR_peptides: protein identified in HA-SS18 WT BAF complex purification from nuclease-treated solubilized chromatin (CHR)
[2] = HA-SS18WT_NE_peptides: proteins co-purified with HA-SS18 WT from nuclear extract (NE)
[3] = HA-SS18SSX1 purification, NE (soluble nuclear extract) fraction, peptides per identified protein
[4] = HA-SS18WT_NE_peptides: HA-SS18 WT complexes purified from nuclear extract (NE), label = protein identified (Gene Symbol)
[5] = HA-SS18WT_CHR_peptides: HA-SS18 WT purification from nuclease-treated solubilized chromatin (CHR), label = protein identified
[6] = HA-SS18SSX1_CHR_peptides: protein identified in the HA-SS18-SSX1 purification from solubilized chromatin (CHR)

| Molecule | Total | Unique | Total (total peptides) [1] | Unique (unique peptides) [1] | Total (peptides) [2] | Unique (peptides) [2] | Total (total peptides) [3] | Unique (unique peptides) [3] | Total (peptides) [4] | Unique (peptides) [4] | Total (peptides) [5] | Unique (peptides) [5] | Total (total peptides) [6] | Unique (unique peptides) [6] |
| --- | --- | --- | --- | --- | --- | --- | --- | --- | --- | --- | --- | --- | --- | --- |
| CTCF (protein, UniProt P49711 1-727, looked up) Transcriptional repressor CTCF: MEGDAVEAIVEESETFIKGKERKTYQRRREGGQEEDACHLPQNQTDGGEVVQDVNSSVQMVMMEQLDPTLLQMKTEVMEGTVAPEAEAAVDDTQIITLQVVNMEEQPINIGELQLVQVPVPVTVPVATTSVEELQGAYENEVSKEGLAESEPMICHTLPLPEGFQVVKVGANGEVETLEQGELPPQEDPSWQKDPDYQPPAKKTKKTKKSKLRYTEEGKDVDVSVYDFEEEQQEGLLSEVNAEKVVGNMKPPKPTKIKKKGVKKTFQCELCSYTCPRRSNLDRHMKSHTDERPHKCHLCGRAFRTVTLLRNHLNTHTGTRPHKCPDCDMAFVTSGELVRHRRYKHTHEKPFKCSMCDYASVEVSKLKRHIRSHTGERPFQCSLCSYASRDTYKLKRHMRTHSGEKPYECYICHARFTQSGTMKMHILQKHTENVAKFHCPHCDTVIARKSDLGVHLRKQHSYIEQGKKCRYCDAVFHERYALIQHQKSHKNEKRFKCDQCDYACRQERHMIMHKRTHTGEKPYACSHCDKTFRQKQLLDMHFKRYHDPNFVPAAFVCSKCGKTFTRRNTMARHADNCAGPDGVEGENGGETKKSKRGRKRKMRSKKEDSSDSENAEPDLDDNEDEEEPAVEIEPEPEPQPVTPAPPPAKKRRGRPPGRTNQPKQNQPTAIIQVEDQNTGAIENIIVEVKKEPDAEPAEGEEEEAQPAATDAPNGDLTPEMILSMMDR | 2 | 2 | 2 | 2 | 1 | 1 | – | – | – | – | – | – | – | – |
| MBD1 (protein, UniProt Q9UIS9 1-605, looked up) Methyl-CpG-binding domain …: MAEDWLDCPALGPGWKRREVFRKSGATCGRSDTYYQSPTGDRIRSKVELTRYLGPACDLTLFDFKQGILCYPAPKAHPVAVASKKRKKPSRPAKTRKRQVGPQSGEVRKEAPRDETKADTDTAPASFPAPGCCENCGISFSGDGTQRQRLKTLCKDCRAQRIAFNREQRMFKRVGCGECAACQVTEDCGACSTCLLQLPHDVASGLFCKCERRRCLRIVERSRGCGVCRGCQTQEDCGHCPICLRPPRPGLRRQWKCVQRRCLRGKHARRKGGCDSKMAARRRPGAQPLPPPPPSQSPEPTEPHPRALAPSPPAEFIYYCVDEDELQPYTNRRQNRKCGACAACLRRMDCGRCDFCCDKPKFGGSNQKRQKCRWRQCLQFAMKRLLPSVWSESEDGAGSPPPYRRRKRPSSARRHHLGPTLKPTLATRTAQPDHTQAPTKQEAGGGFVLPPPGTDLVFLREGASSPVQVPGPVAASTEALLQEAQCSGLSWVVALPQVKQEKADTQDEWTPGTAVLTSPVLVPGCPSKAVDPGLPSVKQEPPDPEEDKEENKDDSASKLAPEEEAGGAGTPVITEIFSLGGTRFRDTAVWLPRSKDLKKPGARKQ | 3 | 2 | 1 | 1 | – | – | – | – | – | – | – | – | – | – |
| SF1 (protein, UniProt Q15637 2-639, looked up) Splicing factor 1: ATGANATPLDFPSKKRKRSRWNQDTMEQKTVIPGMPTVIPPGLTREQERAYIVQLQIEDLTRKLRTGDLGIPPNPEDRSPSPEPIYNSEGKRLNTREFRTRKKLEEERHNLITEMVALNPDFKPPADYKPPATRVSDKVMIPQDEYPEINFVGLLIGPRGNTLKNIEKECNAKIMIRGKGSVKEGKVGRKDGQMLPGEDEPLHALVTANTMENVKKAVEQIRNILKQGIETPEDQNDLRKMQLRELARLNGTLREDDNRILRPWQSSETRSITNTTVCTKCGGAGHIASDCKFQRPGDPQSAQDKARMDKEYLSLMAELGEAPVPASVGSTSGPATTPLASAPRPAAPANNPPPPSLMSTTQSRPPWMNSGPSESRPYHGMHGGGPGGPGGGPHSFPHPLPSLTGGHGGHPMQHNPNGPPPPWMQPPPPPMNQGPHPPGHHGPPPMDQYLGSTPVGSGVYRLHQGKGMMPPPPMGMMPPPPPPPSGQPPPPPSGPLPPWQQQQQQPPPPPPPSSSMASSTPLPWQQNTTTTTTSAGTGSIPPWQQQQAAAAASPGAPQMQGNPTMVPLPPGVQPPLPPGAPPPPPPPPPGSAGMMYAPPPPPPPPMDPSNFVTMMGMGVAGMPPFGMPPAPPPPPPQN | 2 | 2 | – | – | – | – | 8 | 6 | 5 | 4 | – | – | – | – |
| RBM15 (protein, UniProt Q96T37 1-977, looked up) RNA-binding protein 15: MRTAGRDPVPRRSPRWRRAVPLCETSAGRRVTQLRGDDLRRPATMKGKERSPVKAKRSRGGEDSTSRGERSKKLGGSGGSNGSSSGKTDSGGGSRRSLHLDKSSSRGGSREYDTGGGSSSSRLHSYSSPSTKNSSGGGESRSSSRGGGGESRSSGAASSAPGGGDGAEYKTLKISELGSQLSDEAVEDGLFHEFKRFGDVSVKISHLSGSGSGDERVAFVNFRRPEDARAAKHARGRLVLYDRPLKIEAVYVSRRRSRSPLDKDTYPPSASVVGASVGGHRHPPGGGGGQRSLSPGGAALGYRDYRLQQLALGRLPPPPPPPLPRDLERERDYPFYERVRPAYSLEPRVGAGAGAAPFREVDEISPEDDQRANRTLFLGNLDITVTESDLRRAFDRFGVITEVDIKRPSRGQTSTYGFLKFENLDMSHRAKLAMSGKIIIRNPIKIGYGKATPTTRLWVGGLGPWVPLAALAREFDRFGTIRTIDYRKGDSWAYIQYESLDAAHAAWTHMRGFPLGGPDRRLRVDFADTEHRYQQQYLQPLPLTHYELVTDAFGHRAPDPLRGARDRTPPLLYRDRDRDLYPDSDWVPPPPPVRERSTRTAATSVPAYEPLDSLDRRRDGWSLDRDRGDRDLPSSRDQPRKRRLPEESGGRHLDRSPESDRPRKRHCAPSPDRSPELSSSRDRYNSDNDRSSRLLLERPSPIRDRRGSLEKSQGDKRDRKNSASAERDRKHRTTAPTEGKSPLKKEDRSDGSAPSTSTASSKLKSPSQKQDGGTAPVASASPKLCLAWQGMLLLKNSNFPSNMHLLQGDLQVASSLLVEGSTGGKVAQLKITQRLRLDQPKLDEVTRRIKVAGPNGYAILLAVPGSSDSRSSSSSAASDTATSTQRPLRNLVSYLKQKQAAGVISLPVGGNKDKENTGVLHAFPPCEFSQQFLDSPAKALAKSEEDYLVMIIVRGFGFQIGVRYENKKRENLALTLL | 3 | 3 | – | – | – | – | 7 | 6 | 7 | 7 | 3 | 3 | – | – |
| NOLC1 (protein, UniProt Q14978 1-699, looked up) Nucleolar and coiled-body …: MADAGIRRVVPSDLYPLVLGFLRDNQLSEVANKFAKATGATQQDANASSLLDIYSFWLKSAKVPERKLQANGPVAKKAKKKASSSDSEDSSEEEEEVQGPPAKKAAVPAKRVGLPPGKAAAKASESSSSEESSDDDDEEDQKKQPVQKGVKPQAKAAKAPPKKAKSSDSDSDSSSEDEPPKNQKPKITPVTVKAQTKAPPKPARAAPKIANGKAASSSSSSSSSSSSDDSEEEKAAATPKKTVPKKQVVAKAPVKAATTPTRKSSSSEDSSSDEEEEQKKPMKNKPGPYSSVPPPSAPPPKKSLGTQPPKKAVEKQQPVESSEDSSDESDSSSEEEKKPPTKAVVSKATTKPPPAKKAAESSSDSSDSDSSEDDEAPSKPAGTTKNSSNKPAVTTKSPAVKPAAAPKQPVGGGQKLLTRKADSSSSEEESSSSEEEKTKKMVATTKPKATAKAALSLPAKQAPQGSRDSSSDSDSSSSEEEEEKTSKSAVKKKPQKVAGGAAPSKPASAKKGKAESSNSSSSDDSSEEEEEKLKGKGSPRPQAPKANGTSALTAQNGKAAKNSEEEEEEKKKAAVVVSKSGSLKKRKQNEAAKEAETPQAKKIKLQTPNTFPKRKKGEKRASSPFRRVREEEIEVDSRVADNSFDAKRGAAGDWGERANQVLKFTKGKSFRHEKTKKKRGSYRGGSISVQVNSIKFDSE | 1 | 1 | 1 | 1 | 1 | 1 | – | – | 4 | 4 | 13 | 8 | 36 | 13 |
| ARL6IP4 (protein, UniProt Q66PJ3 1-237, looked up) ADP-ribosylation factor-like …: MAHVGSRKRSRSRSRSRGRGSEKRKKKSRKDTSRNCSASTSQGRKASTAPGAEASPSPCITERSKQKARRRTRSSSSSSSSSSSSSSSSSSSSSSSSSDGRKKRGKYKDKRRKKKKKRKKLKKKGKEKAEAQQVEALPGPSLDQWHRSAGEEEDGPVLTDEQKSRIQAMKPMTKEEWDARQSIIRKVVDPETGRTRLIKGDGEVLEEIVTKERHREINKQATRGDCLAFQMRAGLLP | 3 | 2 | – | – | – | – | – | – | – | – | – | – | – | – |
| RSRC1 (protein, UniProt Q96IZ7 1-334, looked up) Serine/Arginine-related …: MGRRSSDTEEESRSKRKKKHRRRSSSSSSSDSRTYSRKKGGRKSRSKSRSWSRDLQPRSHSYDRRRRHRSSSSSSYGSRRKRSRSRSRGRGKSYRVQRSRSKSRTRRSRSRPRLRSHSRSSERSSHRRTRSRSRDRERRKGRDKEKREKEKDKGKDKELHNIKRGESGNIKAGLEHLPPAEQAKARLQLVLEAAAKADEALKAKERNEEEAKRRKEEDQATLVEQVKRVKEIEAIESDSFVQQTFRSSKEVKKSVEPSEVKQATSTSGPASAVADPPSTEKEIDPTSIPTAIKYQDDNSLAHPNLFIEKADAEEKWFKRLIALRQERLMGSPVA | 2 | 2 | – | – | – | – | – | – | – | – | – | – | – | – |
